# According to PubChem BioAssay AID1347075 (National Center for Advancing Translational Sciences (NCATS), 2019):
# Hit rate of the full screen: of about 400,000 compounds, about 5,500 (1.4%) were called active. Inconclusive results, whose numbers are uncertain, are shown with a selection of clear calls. Calls come from the whole dose curve; as a rule, active = well fitted cell-killing curve with a large enough effect; inconclusive = small, poorly fitted or top-dose-only effect, or effect the other way; inactive = flat fitted curve, though single readings scatter. Potencies beside an inconclusive call are fits to weak or partial responses and may not hold up.
# Assay: qHTS assay for MDR1-selective chemotherapeutics: Primary screen using the parental adenocarcinoma cell KB-3-1; note: nearly all actives have a fitted effect of over 60% in size
# Settings: KB-3-1 viability, CellTiter-Glo ATP luminescence, 72 h; activity change, negative = cytotoxic: at 46.1 µM (top of the series)
# Method in brief: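 Here the drug-naive KB-3-1 line serves as comparator for MDR sub-line selectivity; cells received compound titrations, 72 h at 37 °C, then CellTiter-Glo readout.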
# % is set by controls: 0 for no effect and ±100 for the full control effect; potency is the fitted concentration of half-maximal effect.
Compound,Potency,"activity change, negative = cytotoxic"
Cc1ccc2[nH]cc(C(=O)CCl)c2c1,"inconclusive: 20.6 µM [cytotoxic, single point]",
CC(C)(C)c1csc(NC(=O)CSc2nc3ccccc3c(=O)[nH]2)n1,"inconclusive: 18.4 µM [cytotoxic, single point]",
O=C(NC(=S)N1CCN(C/C=C/c2ccccc2)CC1)c1ccc(F)cc1,"inconclusive: 23.1 µM [cytotoxic, single point]",
CCC(=O)Nc1ccc(C(=O)CSc2nc3ccc(C)cc3[nH]2)cc1,"inconclusive: 2.91 µM [rising, partial curve, poor fit]",
COc1ccc(/C=C/C(=O)OCC(=O)NCc2ccccc2)cc1OC,"inconclusive: 5.8 µM [cytotoxic, partial curve, poor fit]",
CCc1cccc(NC(=O)c2cnc(SC)nc2-c2ccccc2)c1,"inconclusive: 29.1 µM [cytotoxic, single point]",
CCOc1ccc(OCCC(=O)N(CCC2=CCCCC2)c2c(N)n(Cc3ccccc3)c(=O)[nH]c2=O)cc1,"inconclusive: 25.9 µM [rising, single point]",
CCCCOc1ccc(C(=O)NCCc2sc(-c3cccc(F)c3)nc2C)cc1,,inactive: -9.62%
NC(=O)Nc1ccc(C(=O)OCC(=O)Nc2cccc(S(=O)(=O)NC3=NCCC3)c2)cc1,"inconclusive: 29.1 µM [rising, single point]",
C(=N\Nc1nc2ccccc2[nH]1)/c1cccc2nccnc12,"inconclusive: 6.51 µM [cytotoxic, full curve, poor fit]",
CCC(CO)Oc1cc(NCc2ccccc2)c2ncn(C3CCCC3)c2c1 (stereo not drawn),"inconclusive: 29.1 µM [cytotoxic, single point]",
COc1ccc(-c2cn3nc(N4CCC(C(=O)Nc5cccc(OC)c5)CC4)sc3n2)cc1,,inactive: 0.778%
COc1ccccc1-c1cn[nH]c1-c1ccc(OCc2ccccc2)cc1O,"inconclusive: 32.6 µM [cytotoxic, single point]",
CCCNC(=O)NC(=O)CN1CCCC1c1ccc2c(c1)OCCO2 (stereo not drawn),"inconclusive: 4.61 µM [cytotoxic, full curve, poor fit]",
O=C(CSc1ccccc1F)NCC1(N2CCCCC2)CCCCC1,"inconclusive: 16.4 µM [cytotoxic, partial curve, poor fit]",
CCCc1nc2ccccc2c(=O)n1/N=C/c1c(C)[nH]n(-c2ccc(C)cc2)c1=O,active: 8.2 µM,
O=C(Cn1c(=O)sc2ccccc21)Nc1ccccc1,,inactive: 12%
O=C(CNC(=O)c1ccc(Br)o1)Nc1cccc(-c2cnc3ccccc3n2)c1,,inactive: -3.46%
NNc1cc2c(nn1)CCN(C(=O)c1ccccc1)C2,active: 18.4 µM,
Cc1ccc(C)c(S(=O)(=O)N2CCN(C(=O)CNC(=O)c3ccc4ccccc4c3)CC2)c1,"inconclusive: 20.6 µM [cytotoxic, single point]",
O=C(O)C1CCCC1,"inconclusive: 29.1 µM [rising, single point]",
N#C/C(=C\c1c(Oc2ccccc2F)nc2ccccn2c1=O)C(=O)NC1CCS(=O)(=O)C1 (stereo not drawn),,inactive: -7.44%
CCN(Cc1ccc(OC)c(F)c1)C(=O)CCl,"inconclusive: 29.1 µM [cytotoxic, single point]",
COc1ccc(OC)c(NC(=O)Cn2c(CCC(=O)O)ccc2-c2ccc(C)cc2)c1,,inactive: 6%
Cc1ccc(NC(=O)C2CCCN(S(=O)(=O)c3c(C)noc3C)C2)cc1F (stereo not drawn),"inconclusive: 29.1 µM [cytotoxic, single point]",

Compound,Potency,"activity change, negative = cytotoxic"
COC(=O)c1cc(Br)c(=O)n(-c2nccs2)c1,"inconclusive: 29.1 µM [cytotoxic, single point]",
CCCCn1c(-c2cccc(Br)c2)nc2cc3[nH]c(=O)c(C(C)C)nc3cc21,"inconclusive: 23.1 µM [cytotoxic, single point]",
Cc1ccc(-c2nc(-c3cccnc3)sc2CC(=O)Nc2ccc(C)c(Cl)c2)cc1,"inconclusive: 29.1 µM [cytotoxic, single point]",
COc1ccc(-c2onc(C)c2C)cc1S(=O)(=O)NCc1ccc(Br)cc1,"inconclusive: 18.4 µM [cytotoxic, single point]",
CC(=O)CC(=O)Nc1ncccn1,,inactive: -9.31%
Cc1ccc(C(=O)NN(C)c2nc3ccccc3nc2C(F)(F)F)cc1,active: 5.8 µM,
COc1ccc(CNCCC(c2ccc(OC)cc2)c2ccccc2OC)cc1 (stereo not drawn),"inconclusive: 16.4 µM [cytotoxic, single point]",
CCN(CC)CCn1nc2c3c(cccc3c1=O)-c1ccccc1-2,"inconclusive: 25.9 µM [cytotoxic, partial curve, poor fit]",
CN(C)c1ccc(/C=C/c2ccnc3cc(Cl)ccc23)cc1,"inconclusive: 4.11 µM [cytotoxic, partial curve, poor fit]",
CC1(C)CC(=O)c2cc(C(=O)NCCc3ccccc3)c(=O)[nH]c2C1,,inconclusive: 26.2%
COc1ccc(C#CC2=CC(=O)CC(C)(C)C2)cc1,,inactive: 0%
COc1ccc(-c2cc(C(F)(F)F)nc(SCCC(=O)Nc3cc(C)on3)n2)cc1,,inactive: -6.66%
CCOc1c(Br)cc(/C=C2\N=C(C)OC2=O)cc1Br,,inactive: 12.6%
C=CCn1c(NCc2c[nH]c3ccccc23)nc2ccccc21,"inconclusive: 20.6 µM [cytotoxic, single point]",
CN(Cc1ccccc1)C(=O)CCC1CCN(C(=O)c2ccccc2C(F)(F)F)CC1,,inactive: -12.8%
NC(=O)c1nsc(C(=O)N(c2ccccc2)C(C(=O)NCC2CCCO2)c2ccc(F)cc2)c1N (stereo not drawn),"inconclusive: 2.59 µM [rising, partial curve, poor fit]",
CCN(/N=C/C=C/c1ccccc1)c1cc(=O)n(C)c(=O)[nH]1,,inactive: -4.46%
CCOc1ccc(CN(C)C(=O)[C@H](Cc2ccccc2)NC(=O)OCc2ccccc2)cc1OC,"inconclusive: 23.1 µM [cytotoxic, partial curve, poor fit]",
CCN(CC)C(=O)Cn1c(SCCOc2ccc(Cl)cc2)nc2ccccc21,,inactive: 0.248%
Cc1ncoc1C(=O)N1CCc2c([nH]c3ccccc23)C1c1ccccc1F (stereo not drawn),,inactive: -2.66%
Cc1ccc(OCC(=O)Nc2ccc(F)cc2)c([N+](=O)[O-])n1,,inactive: 5.37%
CCCC(=O)Nc1nc(-c2ccccc2)ns1,"inconclusive: 29.1 µM [cytotoxic, single point]",
O=C1C(=O)c2cccnc2-c2ncccc21,active: 3.66 µM,
O=[N+]([O-])c1cccnc1Sc1ccc(F)cc1,,inactive: -5.63%
O=C(N/N=C\c1ccc(Cl)s1)c1cccs1,"inconclusive: 35.5 µM [cytotoxic, single point]",

Compound,Potency,"activity change, negative = cytotoxic"
COC(=O)C[C@@H]1CC[C@H](NC(=O)c2ccccc2)[C@@H](CO)O1,,inactive: -1.38%
Nc1[nH]c(C(=O)c2ccccc2)c(-c2c(F)cccc2F)c1C(=O)c1ccc(Cl)c(Cl)c1,"inconclusive: 20.6 µM [cytotoxic, single point]",
O=C(Nc1ccc(Cl)c(Cl)c1)Nc1ccon1,active: 11.6 µM,
CC(C)(C)N/N=C/c1cc(Cl)cc([N+](=O)[O-])c1O,"inconclusive: 29.1 µM [cytotoxic, single point]",
NC(=O)c1ccc(SCC(=O)NC2CCCCC2)c([N+](=O)[O-])c1,,inactive: 5.34%
O=C(Nc1ccc2c(c1)N(C1CCCC1)C(=O)c1ccccc1S2)c1cccc(F)c1,"inconclusive: 3.26 µM [cytotoxic, full curve]",
CC(C)c1ccc2c(c1)C1(NN=C(c3ccccc3)S1)C(=O)N2 (stereo not drawn),"inconclusive: 3.26 µM [cytotoxic, partial curve, poor fit]",
COc1ccc(COc2cc(-c3cccc(OC)c3)nc3ccc(NC(=O)c4ccccc4)cc23)cc1,active: 16.4 µM,
Cc1ccc(Cl)cc1NCc1nnc2n1CCCCC2,,inactive: 10.5%
Cn1c(=NC(=O)c2ccco2)sc2cccc(F)c21,"inconclusive: 29.1 µM [cytotoxic, single point]",
Clc1ccc(-c2cn3c(n2)CCC3)cc1,"inconclusive: 23.1 µM [cytotoxic, single point]",
COc1c(N2CCN(C(=S)NCc3ccccc3)C(C)C2)c(F)cc2c(=O)c(C(=O)O)cn(C3CC3)c12 (stereo not drawn),"inconclusive: 23.1 µM [cytotoxic, partial curve, poor fit]",
SCc1nc2ccccc2[nH]1,"inconclusive: 25.9 µM [rising, partial curve, poor fit]",
O=C(c1ccccc1)c1nn(-c2ccc(Cl)cc2)cc1C(=O)c1cc2ccccc2oc1=O,"inconclusive: 29.1 µM [cytotoxic, single point]",
O=C(COC(=O)CCC(=O)c1ccc(Cl)cc1)NC1CC1,,inactive: 3.13%
COc1ccccc1/C=C/C(=O)NC(=S)NCC1CCCO1 (stereo not drawn),,inactive: -17.3%
O=C(O)CCCN1C(=O)C2C3CCC(C3)C2C1=O (stereo not drawn),,inactive: 4.79%
CNC[C@@H](CC1CCCCC1)NC[C@H](CC(C)C)NCCc1cccc(C(F)(F)F)c1,"inconclusive: 29.1 µM [cytotoxic, single point]",
c1coc(CN2CNc3nc4ccccc4n3C2)c1,"inconclusive: 0.0073 µM [rising, full curve]",
O=C(NC(=S)NCc1cccnc1)c1cccc2ccccc12,,inconclusive: -11%
CCOc1ccc2nc(N3CCC(C(=O)N4CCN(c5ccccn5)CC4)CC3)sc2c1,"inconclusive: 6.51 µM [cytotoxic, partial curve]",
CCOC(=O)C1CCCN(C(=O)c2ccccc2SCCOC)C1 (stereo not drawn),,inactive: -0.0036%
FC(F)(F)c1ccc(C2[C@H]3CN(Cc4cccnc4)[C@H](c4ccccc4)C34CC2(c2cccnc2)C4)cc1 (stereo partly drawn),"inconclusive: 29.1 µM [cytotoxic, single point]",

# Quoted from the listing:
# Value for N#C/C(=C\c1c(Oc2ccccc2F)nc2ccccn2c1=O)C(=O)NC1CCS(=O)(=O)C1 (stereo not drawn) under activity change, negative = cytotoxic: inactive: -7.44%
# Value for O=C(COC(=O)CCC(=O)c1ccc(Cl)cc1)NC1CC1 under activity change, negative = cytotoxic: inactive: 3.13%
# Value for NC(=O)c1nsc(C(=O)N(c2ccccc2)C(C(=O)NCC2CCCO2)c2ccc(F)cc2)c1N (stereo not drawn) under Potency: inconclusive: 2.59 µM [rising, partial curve, poor fit]
